{"source": "PubChem BioAssay AID2685", "about": "(National Center for Advancing Translational Sciences (NCATS), 2010)", "note": "The campaign covered roughly 320,000 compounds. About 2,100 (0.66%) were called active. Inconclusive results, whose numbers are uncertain, are shown with a selection of clear calls. Calls follow the shape of the dose curve; as a rule, active = well fitted inhibition curve with a large enough effect in the signal ratio, with a control signal flat (not every such curve was filed as active); inconclusive = small, poorly fitted or top-dose-only effect, or effect the other way, or a change in a side signal; inactive = flat fitted curve, though single readings scatter; the % refers to the signal ratio. A potency beside an inconclusive call is a rough fit, not a confirmed value. % is scaled to controls: 0 for no effect and ±100 for the full control effect; potency is read from the fitted curve at half-maximal effect.", "data": [{"assay": "qHTS Assay for Lipid Storage Modulators in Drosophila S3 Cells", "conditions": "BODIPY lipid droplet fluorescence, 18-24 h, cells fed with added oleic acid; lipid storage change, negative = inhibition: at 46.1 µM (top of the series) unless noted", "method_in_brief": "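Drosophila S3 cells loaded with oleic acid (400 uM, as added) and compounds at several concentrations; lipid droplets imaged by 488-nm laser-scanning cytometry, 500–530 nm intensity and object ratio to cell channel. Percent activity normalized to 20 uM Triacsin C.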", "values": [{"smiles": "O=c1c2ccccc2nc(N2CCCC2)n1-c1ccccc1", "lipid storage change, negative = inhibition": "inconclusive: 3.24%"}, {"smiles": "O=[N+]([O-])c1ccc(NC2CCN(Cc3ccccc3)CC2)c2ccncc12", "lipid storage change, negative = inhibition": "inconclusive: 63.5%"}, {"smiles": "COc1cc(C)cc(CN2CC=C(c3ccccc3)CC2)c1O", "lipid storage change, negative = inhibition": "inconclusive: 4.85%"}, {"smiles": "Cc1cc(Br)ccc1N1C(=O)CC(=O)NC1=O", "lipid storage change, negative = inhibition": "inconclusive: -44.4%"}, {"smiles": "Cc1cccc(-n2c(-c3ccco3)nc3ccccc3c2=O)n1", "lipid storage change, negative = inhibition": "inconclusive: 69.9%"}, {"smiles": "CCOc1cc2c(cc1OCC)-n1cccc1C(c1cccc([N+](=O)[O-])c1)NC2", "note": "(stereo not drawn)", "lipid storage change, negative = inhibition": "inconclusive: 65.5%"}, {"smiles": "CCOP(=O)(Cc1ccccc1)OCC", "Potency": "inconclusive: 6.51 µM [activator, partial curve, poor fit]"}, {"smiles": "O=[N+]([O-])c1cc2c(cc1CNCCc1ccc3c(c1)OCO3)OCO2", "Potency": "inconclusive: 0.0052 µM [activator, full curve, poor fit]"}, {"smiles": "CN1CCC(OC(=O)C2c3ccccc3Oc3ccccc32)CC1", "lipid storage change, negative = inhibition": "inconclusive: -3.93%"}, {"smiles": "COC(=O)C1=C(c2ccc(F)cc2F)C[C@@H]2CC[C@H]1N2C(=O)N1CCCC1", "lipid storage change, negative = inhibition": "inconclusive: 33.1%"}, {"smiles": "CCOC(=O)c1c(C)n(COCCO)c2ccc(O)cc12", "lipid storage change, negative = inhibition": "inconclusive: 27.2%"}, {"smiles": "CCn1c(O)c(C(=O)CC2NCCc3ccccc32)c(=O)n(CC)c1=S", "note": "(stereo not drawn)", "lipid storage change, negative = inhibition": "inconclusive: -3.28%"}, {"smiles": "Cc1cc(OC(=O)CCNC(=O)OC(C)(C)C)c2c3c(c(=O)oc2c1)CCC3", "lipid storage change, negative = inhibition": "inconclusive: -21.8%"}, {"smiles": "COc1cccc(N2CCN(Cc3cccc(Cl)c3)CC2)c1", "Potency": "inconclusive: 0.0164 µM [activator, full curve, poor fit]"}, {"smiles": "CCOC(=O)C1C(=O)N(C)C2(C)CC1c1ccccc1O2", "note": "(stereo not drawn)", "lipid storage change, negative = inhibition": "inconclusive: -8.67%"}, {"smiles": "CCOC(=O)C1(CCOc2ccccc2)CCN(Cc2cccc(O)c2)CC1", "lipid storage change, negative = inhibition": "inconclusive: 16.3%"}, {"smiles": "C[N+]1(C)C2CCC1CC(OC(=O)c1ccco1)C2", "note": "(stereo not drawn)", "lipid storage change, negative = inhibition": "inconclusive: -60.2%"}, {"smiles": "COc1ccc(C(=O)CC2(CC(=O)c3ccc(OC)cc3)C(=O)N(C)C(=O)N(C)C2=O)cc1", "Potency": "inconclusive: 2.59 µM [falling, full curve, poor fit]"}, {"smiles": "COC(=O)c1ccc(N2C(=O)CC(N3CCC(n4c(=O)[nH]c5ccccc54)CC3)C2=O)cc1", "note": "(stereo not drawn)", "lipid storage change, negative = inhibition": "inconclusive: 8.67%"}, {"smiles": "C/C=C1/C[C@@H](C)[C@](O)(CO)C(=O)OCC2=CCN3CC[C@@H](OC1=O)[C@@H]23", "lipid storage change, negative = inhibition": "inconclusive: 9.67%"}, {"smiles": "O=c1[nH]c(=O)n(-c2cccc(F)c2)c(O)c1/C=C1\\C=Nc2ccccc21", "lipid storage change, negative = inhibition": "inconclusive: -73.7%"}, {"smiles": "Cn1c(O)c(C(=O)c2ccccc2Cl)c(=O)n(C)c1=O", "lipid storage change, negative = inhibition": "inconclusive: 4.55%"}, {"smiles": "COc1ccc(S(=O)(=O)NC(CC(=O)N2CCC3(CC2)OCCO3)C(C)C)cc1", "note": "(stereo not drawn)", "lipid storage change, negative = inhibition": "inconclusive: -20.3%"}, {"smiles": "CCn1cc(C(=O)NCc2ccccc2)c2ccccc21", "lipid storage change, negative = inhibition": "inconclusive: 24.7%"}, {"smiles": "Cn1cc(P(=O)(N2CCOCC2)N2CCOCC2)cc1P(=S)(N1CCOCC1)N1CCOCC1", "Potency": "inconclusive: 6.51 µM [activator, single point]"}, {"smiles": "CC1CCCCN1CC(O)c1c[nH]c2ccccc12", "note": "(stereo not drawn)", "lipid storage change, negative = inhibition": "inconclusive: 4.63%"}, {"smiles": "Cc1cc(/C=C2/C(=O)NC(=O)N(c3ccc(Br)cc3)C2=O)c(C)n1C", "lipid storage change, negative = inhibition": "inconclusive: -33.7%"}, {"smiles": "CC(c1ccccc1)(c1ccccc1)c1ccncc1", "lipid storage change, negative = inhibition": "inactive"}, {"smiles": "Clc1ccc(-c2nc3ccc(Cl)cn3c2CN2CCCCC2)cc1", "lipid storage change, negative = inhibition": "inconclusive: -6.12%"}, {"smiles": "CCN(CC)CCN=Cc1c(O)n(C2CCCCCC2)c(=O)[nH]c1=O", "Potency": "active: 18.4 µM"}, {"smiles": "Cc1cccc(N2CCN(Cc3ccc4c(c3)OCO4)CC2)c1C", "Potency": "inconclusive: 29.1 µM [activator, single point]"}, {"smiles": "C[C@H]1O[C@@H](O[C@H]2[C@@H](O)C[C@H](O[C@H]3[C@@H](O)C[C@H](O[C@H]4CC[C@@]5(C)[C@H](CC[C@@H]6[C@@H]5CC[C@]5(C)[C@@H](C7=CC(=O)OC7)CC[C@]65O)C4)O[C@@H]3C)O[C@@H]2C)C[C@H](O)[C@@H]1O", "lipid storage change, negative = inhibition": "inconclusive: -1.51%"}, {"smiles": "O=P1(NCc2ccco2)COc2ccccc2OC1", "lipid storage change, negative = inhibition": "inconclusive: 1.46%"}, {"smiles": "Cc1ccc(OCC(=O)N2CCN(Cc3cccnc3)CC2)cc1", "lipid storage change, negative = inhibition": "inconclusive: 17%"}, {"smiles": "COC(=O)C1=C(c2c(C)noc2C)C[C@@H]2CC[C@H]1N2C(=O)NCCNC(C)=O", "lipid storage change, negative = inhibition": "inconclusive: 41.7%"}, {"smiles": "CC1CCCCN1CCNS(=O)(=O)c1ccc2c(c1)oc(=O)n2C", "note": "(stereo not drawn)", "Potency": "active: 29.1 µM"}, {"smiles": "COc1ccccc1N1CCN(Cc2ccc(SC)cc2)CC1", "lipid storage change, negative = inhibition": "inconclusive: -18.1%"}, {"smiles": "COC(=O)C1=C(c2ccc(OC)c(OC)c2)C[C@@H]2CC[C@H]1N2C(=O)NCc1ccc(F)cc1", "Potency": "inconclusive: 4.11 µM [activator, single point]"}, {"smiles": "CC(C)Cc1nnc(NC(=O)CCC(=O)N2CCN(CCOC(c3ccccc3)c3ccccc3)CC2)s1", "lipid storage change, negative = inhibition": "inconclusive: -21.2%"}, {"smiles": "O=C(CN1CC(c2ccccc2)CC1=O)Nc1cccc(F)c1", "note": "(stereo not drawn)", "lipid storage change, negative = inhibition": "inconclusive: -0.876%"}, {"smiles": "COc1ccc(C(=O)c2nc3ccccc3n2C(C)C)cc1", "lipid storage change, negative = inhibition": "inconclusive: 8.08%"}, {"smiles": "Clc1cccc(Cl)c1Cl", "lipid storage change, negative = inhibition": "inconclusive: 13.6%"}, {"smiles": "O=c1c2ccccc2nc(-c2ccco2)n1-c1ccc(Br)cn1", "lipid storage change, negative = inhibition": "inconclusive: 20.5%"}]}]}
